From doi:10.1101/2024.05.17.594698

target: T1, sestrin 2 (endogenous) (human (endogenous in CD4+ T cells)) (UniProt P58004); assay: co-IP
T1 sequence: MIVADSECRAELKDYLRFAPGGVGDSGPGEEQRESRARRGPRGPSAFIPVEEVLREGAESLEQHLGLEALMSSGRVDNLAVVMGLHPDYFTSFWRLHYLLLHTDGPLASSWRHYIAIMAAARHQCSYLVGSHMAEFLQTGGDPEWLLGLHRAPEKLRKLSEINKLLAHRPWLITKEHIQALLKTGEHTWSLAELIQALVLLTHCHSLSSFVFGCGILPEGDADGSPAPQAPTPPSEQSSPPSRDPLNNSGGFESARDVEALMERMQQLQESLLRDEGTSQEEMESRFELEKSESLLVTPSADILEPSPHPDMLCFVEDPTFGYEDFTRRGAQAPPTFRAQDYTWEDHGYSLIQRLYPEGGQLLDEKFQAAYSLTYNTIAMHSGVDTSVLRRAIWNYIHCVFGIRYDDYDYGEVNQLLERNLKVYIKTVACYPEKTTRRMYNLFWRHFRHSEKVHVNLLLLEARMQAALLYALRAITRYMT

binding, binds:
p38 MAPK (human (endogenous in CD4+ T cells)) (enzyme), JNK MAPK (human (endogenous in CD4+ T cells)) (enzyme), ERK MAPK (human (endogenous in CD4+ T cells)) (enzyme)

These are yes or no findings as the source states them, for the method shown. In cells and extracts the contact can be indirect. Binding can be weak; no strength is given.
